## Screening data, single-dose tests

Data taken from ChEMBL document CHEMBL3988442, “University of Dundee, Small-Polar-MMV Screening Library” (2021).

Results are given as percent effect. The record does not define 0% and 100%; most values in the screen are far below 50% and negative numbers occur (in some assays of this library far below -100). The compounds are a random part of those screened. Two or more numbers in one place are separate tests of the same structure; such repeats can differ widely.

A: 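Whole-cell growth test on Mycobacterium tuberculosis, read after 3 days in glucose-containing 7H9 medium; the read-out is not stated. Concentration: 50 µM. Higher reads as more growth inhibition (inferred: compounds with an IC50 in retests scored well above the rest). About 69,000 compounds were tested under these conditions; 1.1% (about 760) showed 50% or more at least once.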
B: 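Growth of Mycobacterium tuberculosis over 4 days (cholesterol / DPPC medium with tyloxapol); the read-out is not stated. Concentration: 50 µM. Direction is inferred from retests: higher values go with more growth inhibition. About 69,000 compounds were tested under these conditions; 0.54% (about 370) showed 50% or more at least once.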

| SMILES | A | B |
|---|---|---|
| `COCc1ncc(-c2nccn2CCS(C)(=O)=O)cn1` | -20.66% | -18.87% |
| `Cc1nc2n(n1)CC(NCC(=O)Nc1cc(C)on1)CC2` (stereo unspecified) | -3.442% & -2.557% | -5.854% |
| `CC(C#N)CN(C)Cc1c(Cl)ccc2cccnc12` (stereo unspecified) | -8.745% | 10.25% |
| `Cn1cnc2c1CCN(Cc1cccc(C(N)=O)c1)C2` | -26.42% | 11.8% |
| `O=C(c1ncoc1C1CCCO1)N1CC2(CCCC2)c2ccccc21` (stereo unspecified) | 23.41% | 0.5427% |
| `CC(C)n1cc(C(=O)NCCCc2csc(N)n2)cn1` | 11.21% | -6.867% |
| `CC1c2cccn2CCN1S(=O)(=O)N1CCCCCC1` (stereo unspecified) | -8.343% | 10.97% & 4.704% |
| `Cc1cc(C)n(CC2CCCN2CC(=O)N(C)C)n1` (stereo unspecified) | 21.2% | 4.473% |
| `O=C(CN(Cc1ccco1)C1CC1)Nc1ccc(Br)cn1` | 56.43% | 24.36% |
| `Cc1noc(C(C)N2CCN(Cc3ccco3)CC2)n1` (stereo unspecified) | 23.72% | -9.97% |
| `CC(C)NC(=O)N1CCN(c2ccc(Cl)nn2)C(=O)C1` | 10.92% | -1.33% |
| `CC(C)N1CCC(N2CCCC(C(=O)NCC3(C)COC3)C2)CC1` (stereo unspecified) | 16.03% | 4.806% |
| `CCn1cc(NC(=O)NCc2ccc(CO)c(F)c2)cn1` | -10.99% | -5.949% |
| `O=C(NCCCN1CCOCC1)c1ccn(COc2ccc(F)cc2)n1` | 10.47% | 6.572% |
| `CCNc1ccnc(NCC2(N(C)C)CCOCC2)n1` | -6.621% | -5.853% |
| `COCCOCCC(=O)N1CCC(c2ccccc2C)C1` (stereo unspecified) | -10.69% | 26.96% |
| `COCc1nc(Cn2c(C)cc(C(F)(F)F)cc2=O)no1` | -11.65% & 0.03703% | -6.263% |
| `Cc1ccc(CCN[C@@H]2c3ccccc3C3(CCNCC3)[C@H]2O)s1` | 36.76% | 13.76% |
| `Cc1ccccc1Oc1ncccc1CNC(=O)Cn1cccnc1=O` | -4.307% & -47.74% | -24.62% |
| `COC(=O)CC(NC(=O)c1cccc(N2CCCC2=O)c1)c1cccs1` (stereo unspecified) | 7.015% | 0.7769% |
| `O=C(c1cn(-c2cc(N3CCSCC3)ncn2)cn1)N1CCOCC1` | -26.2% | -20.55% |
| `O=C1CC(C(=O)Nc2nnc(-c3ccoc3)[nH]2)c2ccccc2N1` (stereo unspecified) | -15.46% | 0.6076% |
| `CCC1CN(C)c2ccccc2CN1CCn1cncn1` (stereo unspecified) | 20.07% | -14.4% & -5.652% |
| `CCN(CC)CCNc1c(-c2ccccc2)c(=O)c1=O` | 21.94% | 0.5618% |
| `Cc1cc(NC(=O)CCNC(C)(C)c2nc(C)c(C)s2)no1` | 8.114% | -5.185% |
| `CCOCCC(=O)NCc1ccnc(NC2CC2)c1` | -20.02% | -6.599% |
| `O=C(c1ccc(-n2ccnc2)nn1)N1CCCCC1Cn1cccn1` (stereo unspecified) | -3.712% & -0.1126% | -4.14% |
| `Cc1n[nH]c(C)c1CC(=O)N1CC[C@@](C)(O)[C@@H](Cc2ccccc2)C1` | 9.004% | 6.404% |
| `Cc1cc(NCC(=O)N(C)C)c(C(N)=O)cc1F` | 24.36% | -13.33% |
| `Cc1n[nH]c(C)c1S(=O)(=O)N1CCC(Oc2cnccn2)CC1` | 36.9% | 13.95% |
| `CCN1Cc2c(C(=O)NCC3CC3)ncn2-c2ccccc2S1(=O)=O` | -1.333% | -12.99% |
| `CC(C)c1nc(C2CCCN2C(=O)c2nccnc2N)no1` (stereo unspecified) | 4.322% | -1.926% |
| `COc1ccc(F)c(NCc2cnn(C3CCS(=O)(=O)C3)c2)c1` (stereo unspecified) | -13.58% | -24.92% |
| `Cc1cc(C)n2ncc(CN3CCC(Cn4cc(CO)nn4)CC3)c2n1` | 18.63% | -24.36% & 2.137% |
| `Nc1nccc(N2CCC(c3cc(Cc4ccccc4)n[nH]3)CC2)n1` | -11.08% | -5.345% |
| `Cc1nccn1CCCC(=O)Nc1nc(C(C)C)nn1C` | -5.844% | 9.598% |
| `CC(NC(=O)Nc1cccnc1N1CCCC1)c1ccccn1` (stereo unspecified) | 7.92% & 6.335% | -10.87% |
| `NC(=O)N1CCCN(C2CCCCc3ccccc32)CC1` (stereo unspecified) | 3.287% | 15.05% |
| `Cc1nc(C)n(C2CCCN(C(=O)c3csc(C(C)C)n3)C2)n1` (stereo unspecified) | -12.73% | -13.48% |
| `O=C(NCCN1CCOC1=O)c1ccc2sccc2c1` | 8.308% | 3.367% |
| `Cc1nc(N(C)C)nc2c1COCC21CCN(C(=O)C2CC2)C1` (stereo unspecified) | 8.604% | -2.479% |
| `COc1ccc(-c2nc(CN3CCN(CCO)CC3)co2)cc1` | -3.717% | -2.209% |
| `CCC(=O)N1CC[C@@H](c2ccc3ccccc3c2)[C@H](O)C1` | 29.6% | -12.05% |
| `CC(C)NC(=O)c1nnn(-c2ccc(F)cc2)c1C1CC1` | -17.99% | -12.14% |
| `COc1cccc(-n2nnc(C(=O)N3CCCC(C)C3)c2C)c1` (stereo unspecified) | -23.92% | -17.26% |
| `CN1[C@@H](c2ccccc2)[C@@H](C(=O)NCc2ccccn2)C[C@@]1(C)C(=O)O` | -6.53% | -11.29% |
| `Cc1cccc(CN2CCC3(CCCN(C(=O)CN(C)C)C3)C2=O)n1` (stereo unspecified) | -1.319% & -10.36% | -2.363% & -5.489% |
| `O=C(NC[C@H]1CC[C@H](c2nnc(-c3cccnc3)o2)CC1)C1CC1` | -9.861% | 1.194% |
| `CNc1cc(C)nc(N2CCC3(CC2)[C@H](O)C[C@@H]3OCCO)n1` | -25% | 27.64% |
| `CCNC(=O)CCC(=O)NC1(c2cccc(Br)c2)CC1` | -6.193% & 18.3% | 16.46% |
| `Cc1cc(Br)cnc1N(C)CC1CCOC1` (stereo unspecified) | 1.732% | -11.95% & -10.82% |
| `[H][C@@]12CCN(C(=O)c3cnn(C)c3)[C@@]1([H])CCN2c1cccc(C)n1` | 7.946% & -11.6% | -1.896% |
| `COc1c(C2CCCN2C(=O)c2c[nH]c3ncccc23)c(C)nn1C` (stereo unspecified) | -2.869% | -9.122% |
| `CCC(C)(C)NC(=O)c1ncn2c1CN(C)S(=O)(=O)c1ccccc1-2.O=C(O)C(F)(F)F` | 13.96% | -2.416% |
| `CC(O)C1CCN(C(=O)CCOc2ccccc2F)CC1` (stereo unspecified) | 12.87% | 16.98% |
| `COc1ccc(Cn2c(CCc3c(C)n[nH]c3C)n[nH]c2=O)cc1` | 15.36% | -4.872% |
| `CC(C)c1nnc(CN2CCN(C(C)c3nc(C4CC4)no3)CC2)o1` (stereo unspecified) | -19.89% | -17.5% |
| `CC(NC(=O)CCn1c(=O)oc2ccccc21)c1ccccn1` (stereo unspecified) | -12.52% | 3.526% & -5.047% |
| `CN(Cc1ccsc1)C(=O)CN1CCOC(Cn2cccn2)C1` (stereo unspecified) | -6.22% | -15.53% |
| `Cc1cnc2[nH]c(C(F)(F)F)c(CN3CCSCC3)c2c1` | -1.995% | -8.427% |
| `Cc1noc(C2CCCN(CC(=O)N3CCc4ccccc4C3)C2)n1` (stereo unspecified) | -23.82% | -8.234% |
| `C[C@@H]1CN(Cc2cc3ccccc3n2C)CC[C@]1(C)O` | -18.48% | -27.22% |
| `[H][C@]12CN(c3nccs3)CC[C@@]1(O)CCN(S(=O)(=O)N(C)C)C2` | -4.65% & -3.598% | 13.1% |
| `O=C1CC(NCc2cnc(-c3cccs3)nc2)CN1c1ccccc1` (stereo unspecified) | -6.842% | -11.08% |
| `CCOc1ccc(NC(=O)N2CCOC(C(N)=O)C2)cc1C` (stereo unspecified) | 17.12% | 7.661% |
| `CC(C)c1nccn1C1CCCN(C(=O)c2cccc3c2OCO3)C1` (stereo unspecified) | 10.49% | 1.418% |
| `CC(C)n1cnnc1Cn1ccc2ncccc2c1=O` | -32.34% | -8.523% |
| `CCc1ncnc2c1CCN(Cc1cccs1)CC2.O=C(O)C(F)(F)F` | 5.574% & 9.049% | -3.276% |
| `COC(=O)c1cc(OCC2CCC2)cc(C(=O)N[C@@H](C)CO)c1` | 27.38% | 6.26% |
| `Cc1ccccc1N1CC2(CCN(S(=O)(=O)c3cccs3)C2)CC1=O` (stereo unspecified) | -0.4539% | -18.62% |
| `NC(=O)c1cc(C2CCCN(C(=O)CCc3cccs3)C2)n[nH]1` (stereo unspecified) | -13.01% | 27.4% |
| `CC(C)COCC1CN(C(=O)c2cscn2)Cc2ncn(C)c21.O=C(O)C(F)(F)F` (stereo unspecified) | 13.61% | 4.482% |
| `CCCc1noc(CN2CCC(N(C)Cc3nnc(C4CC4)o3)C2)n1` (stereo unspecified) | -0.6246% | -10.57% |
| `CN(CCn1cccn1)S(=O)(=O)c1ccc(C#N)cc1` | 20.74% | 3.839% |
| `O=C(Cn1ccc2cc(Br)ccc21)NCc1ccc(C(=O)O)cc1` | -2.697% | -20.35% |
| `CC1=NOC2(CCN(Cc3c[nH]c4ccccc34)CC2)C1` | -4.846% | -17.46% |
| `Cc1nccn1-c1ccc(NS(=O)(=O)c2cccnc2)cn1` | -54.51% | -18.43% |
| `[H][C@]12CCN(C(N)=O)[C@@]1([H])CC[C@H](COCC(=O)N1CCCC1)O2` | -32.1% | -6.415% |
| `Cc1csc(N2CCN(Cc3ccccn3)CC2C)n1` (stereo unspecified) | 4.533% & -1.742% | -21.98% |
| `c1ncn(CC2CCCN(Cc3nc(-c4ccoc4)no3)C2)n1` (stereo unspecified) | -28.89% | -1.716% |
| `Cc1cc(C(F)F)nn1C(C)C(=O)NCc1ncc[nH]1` (stereo unspecified) | 14.7% | 13.52% & 0.8238% |

9 of the entries, repeated:

* CCC(C)(C)NC(=O)c1ncn2c1CN(C)S(=O)(=O)c1ccccc1-2.O=C(O)C(F)(F)F : A: 13.96%; B: -2.416%
* Cc1ccccc1Oc1ncccc1CNC(=O)Cn1cccnc1=O : A: -4.307% & -47.74%; B: -24.62%
* Cc1nc(C)n(C2CCCN(C(=O)c3csc(C(C)C)n3)C2)n1 (stereo unspecified) : A: -12.73%; B: -13.48%
* [H][C@]12CN(c3nccs3)CC[C@@]1(O)CCN(S(=O)(=O)N(C)C)C2 : A: -4.65% & -3.598%; B: 13.1%
* CC1=NOC2(CCN(Cc3c[nH]c4ccccc34)CC2)C1 : A: -4.846%; B: -17.46%
* CCn1cc(NC(=O)NCc2ccc(CO)c(F)c2)cn1 : A: -10.99%; B: -5.949%
* COc1ccc(-c2nc(CN3CCN(CCO)CC3)co2)cc1 : A: -3.717%; B: -2.209%
* Cc1noc(C(C)N2CCN(Cc3ccco3)CC2)n1 (stereo unspecified) : A: 23.72%; B: -9.97%
* COc1c(C2CCCN2C(=O)c2c[nH]c3ncccc23)c(C)nn1C (stereo unspecified) : A: -2.869%; B: -9.122%